Experimental data reported in publication doi:10.1101/2020.04.03.023721.
No constants are given. Whether binding was seen depends on the method and setting. In cells and extracts the contact can be indirect. Some binding calls cover weakened binding; strength is not graded here. For part of these data: Where a sequence is shown, tags or fusion partners need not be part of it.

Amino acid sequences for entries named in this document (tags omitted).
UniProt O00303: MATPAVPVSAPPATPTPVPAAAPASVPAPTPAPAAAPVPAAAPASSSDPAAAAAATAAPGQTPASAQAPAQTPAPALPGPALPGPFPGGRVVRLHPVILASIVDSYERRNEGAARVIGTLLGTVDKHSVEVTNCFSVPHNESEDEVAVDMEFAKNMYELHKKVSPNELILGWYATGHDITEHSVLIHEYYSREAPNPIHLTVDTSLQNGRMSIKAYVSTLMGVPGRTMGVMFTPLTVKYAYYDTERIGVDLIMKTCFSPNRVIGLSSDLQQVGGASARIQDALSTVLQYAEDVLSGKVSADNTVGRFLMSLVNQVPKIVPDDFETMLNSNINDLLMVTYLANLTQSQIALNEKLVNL
UniProt Q96RD7: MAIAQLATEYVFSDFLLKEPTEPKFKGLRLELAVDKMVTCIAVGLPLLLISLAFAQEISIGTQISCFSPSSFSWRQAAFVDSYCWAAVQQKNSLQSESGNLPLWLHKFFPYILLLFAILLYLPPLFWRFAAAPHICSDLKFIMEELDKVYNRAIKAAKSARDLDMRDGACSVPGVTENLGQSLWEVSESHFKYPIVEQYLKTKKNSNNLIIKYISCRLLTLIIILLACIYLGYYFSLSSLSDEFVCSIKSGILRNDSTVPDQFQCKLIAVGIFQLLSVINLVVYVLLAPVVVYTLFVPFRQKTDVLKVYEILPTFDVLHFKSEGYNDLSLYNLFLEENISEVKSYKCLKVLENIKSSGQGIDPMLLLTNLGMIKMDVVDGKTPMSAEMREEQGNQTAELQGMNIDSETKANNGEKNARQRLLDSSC
UniProt P49023: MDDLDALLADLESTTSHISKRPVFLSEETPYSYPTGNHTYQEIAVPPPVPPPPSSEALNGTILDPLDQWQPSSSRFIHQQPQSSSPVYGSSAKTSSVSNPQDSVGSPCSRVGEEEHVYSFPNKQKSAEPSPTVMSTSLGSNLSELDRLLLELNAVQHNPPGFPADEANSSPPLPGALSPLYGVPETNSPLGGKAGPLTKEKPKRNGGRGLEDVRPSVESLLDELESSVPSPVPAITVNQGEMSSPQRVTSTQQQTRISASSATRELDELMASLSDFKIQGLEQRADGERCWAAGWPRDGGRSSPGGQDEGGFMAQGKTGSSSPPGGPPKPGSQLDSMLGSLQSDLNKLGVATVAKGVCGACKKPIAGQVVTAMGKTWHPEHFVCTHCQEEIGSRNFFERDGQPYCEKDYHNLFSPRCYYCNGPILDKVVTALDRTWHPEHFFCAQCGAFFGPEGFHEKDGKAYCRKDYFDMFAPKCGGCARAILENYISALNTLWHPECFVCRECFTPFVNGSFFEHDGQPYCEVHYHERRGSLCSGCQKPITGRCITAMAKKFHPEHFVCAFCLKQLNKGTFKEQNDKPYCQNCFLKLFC

Columns and labels:
Test in all cases: co-IP
[1] = molecular target: T1, Flag-UPS13(301-624) (human) (UniProt Q92995)
T1 sequence: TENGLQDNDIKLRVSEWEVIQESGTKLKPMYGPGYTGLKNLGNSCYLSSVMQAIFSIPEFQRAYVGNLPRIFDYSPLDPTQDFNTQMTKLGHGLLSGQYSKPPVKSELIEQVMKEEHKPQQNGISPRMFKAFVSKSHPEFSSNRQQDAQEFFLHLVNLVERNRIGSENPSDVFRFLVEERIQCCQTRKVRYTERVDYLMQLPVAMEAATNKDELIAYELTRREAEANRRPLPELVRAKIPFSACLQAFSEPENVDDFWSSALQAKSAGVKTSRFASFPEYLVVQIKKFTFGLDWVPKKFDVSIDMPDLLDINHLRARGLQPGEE

Flag-P2X7 = molecular target: T2, Flag-P2X7 (UniProt Q99572)
T2 sequence: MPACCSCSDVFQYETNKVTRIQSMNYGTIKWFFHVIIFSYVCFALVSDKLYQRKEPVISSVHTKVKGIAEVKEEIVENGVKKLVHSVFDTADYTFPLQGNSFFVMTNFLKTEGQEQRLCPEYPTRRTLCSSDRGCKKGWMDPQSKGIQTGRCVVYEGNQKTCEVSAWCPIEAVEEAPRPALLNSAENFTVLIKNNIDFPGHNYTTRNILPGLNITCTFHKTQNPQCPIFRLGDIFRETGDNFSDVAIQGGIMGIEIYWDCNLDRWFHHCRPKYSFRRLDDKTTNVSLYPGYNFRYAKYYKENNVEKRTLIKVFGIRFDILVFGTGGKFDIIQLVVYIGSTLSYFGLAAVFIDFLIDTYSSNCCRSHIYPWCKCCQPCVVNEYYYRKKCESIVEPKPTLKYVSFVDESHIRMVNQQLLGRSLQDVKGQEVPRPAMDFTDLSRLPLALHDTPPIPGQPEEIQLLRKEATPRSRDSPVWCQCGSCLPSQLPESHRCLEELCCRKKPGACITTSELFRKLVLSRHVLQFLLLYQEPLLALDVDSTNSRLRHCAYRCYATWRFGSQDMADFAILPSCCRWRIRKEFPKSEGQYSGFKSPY

Flag-P2X7(34-595) = molecular target: T3, Flag-P2X7(34-595) (UniProt Q99572)
T3 sequence: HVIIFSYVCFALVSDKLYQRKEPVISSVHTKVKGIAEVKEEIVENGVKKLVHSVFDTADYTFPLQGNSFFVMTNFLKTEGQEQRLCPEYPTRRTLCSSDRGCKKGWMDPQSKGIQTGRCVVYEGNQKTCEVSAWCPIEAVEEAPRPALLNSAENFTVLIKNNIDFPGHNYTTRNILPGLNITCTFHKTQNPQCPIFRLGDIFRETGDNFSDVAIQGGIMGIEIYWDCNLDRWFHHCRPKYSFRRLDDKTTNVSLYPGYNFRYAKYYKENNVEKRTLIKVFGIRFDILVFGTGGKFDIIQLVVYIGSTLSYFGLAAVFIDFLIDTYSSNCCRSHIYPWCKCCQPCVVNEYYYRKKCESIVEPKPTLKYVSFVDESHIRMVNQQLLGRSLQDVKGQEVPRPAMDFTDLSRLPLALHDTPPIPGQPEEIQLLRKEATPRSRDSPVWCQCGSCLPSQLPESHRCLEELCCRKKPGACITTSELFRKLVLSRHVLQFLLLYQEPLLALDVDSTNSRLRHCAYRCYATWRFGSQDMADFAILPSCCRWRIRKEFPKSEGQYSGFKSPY

Flag-EIF3S5 (human) = Flag-EIF3S5 (human) (UniProt O00303)
Flag-Pannexin-1 = Flag-Pannexin-1 (UniProt Q96RD7)
Flag-P2X7(335-595) = molecular target: T4, Flag-P2X7(335-595) (UniProt Q99572)
T4 sequence: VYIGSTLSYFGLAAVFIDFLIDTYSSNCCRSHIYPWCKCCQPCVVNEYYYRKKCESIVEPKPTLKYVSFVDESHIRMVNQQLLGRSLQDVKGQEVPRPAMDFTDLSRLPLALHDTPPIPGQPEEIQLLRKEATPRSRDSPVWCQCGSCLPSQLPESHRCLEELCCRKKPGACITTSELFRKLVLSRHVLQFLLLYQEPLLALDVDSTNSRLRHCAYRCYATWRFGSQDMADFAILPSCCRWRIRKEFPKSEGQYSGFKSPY

Measured: binding

HA-Paxillin (from UniProt P49023 1-591)
no binding: [1] | Flag-P2X7(34-595) | Flag-P2X7(335-595)
binds: all other assays above
